{"sequences": {"note": "Protein sequences, listed by entry. Tags and fused reporters are not part of them.", "UniProt P03372, whole entry, looked up": "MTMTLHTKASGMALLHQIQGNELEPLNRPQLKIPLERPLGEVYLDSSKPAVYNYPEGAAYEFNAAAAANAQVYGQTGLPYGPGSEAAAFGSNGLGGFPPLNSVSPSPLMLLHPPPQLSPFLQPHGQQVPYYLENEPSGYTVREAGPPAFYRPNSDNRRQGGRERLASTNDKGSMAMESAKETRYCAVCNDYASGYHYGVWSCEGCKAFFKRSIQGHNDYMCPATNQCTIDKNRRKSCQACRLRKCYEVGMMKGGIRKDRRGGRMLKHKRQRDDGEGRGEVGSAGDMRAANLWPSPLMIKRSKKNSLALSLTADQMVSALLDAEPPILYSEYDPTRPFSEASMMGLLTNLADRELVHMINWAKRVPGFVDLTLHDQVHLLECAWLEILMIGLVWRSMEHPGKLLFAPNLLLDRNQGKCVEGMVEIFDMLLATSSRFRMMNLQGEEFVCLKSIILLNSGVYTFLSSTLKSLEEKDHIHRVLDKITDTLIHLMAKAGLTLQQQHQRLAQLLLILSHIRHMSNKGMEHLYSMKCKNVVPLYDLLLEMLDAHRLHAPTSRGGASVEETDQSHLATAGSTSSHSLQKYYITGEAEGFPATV"}, "source": "PubChem BioAssay AID2284375", "about": "(EPA ToxCast)", "note": "The shares of active, inactive and inconclusive entries below differ from those in the screen. Potencies of inconclusive entries are doubtful fits and often do not repeat. Activity calls are given as the source filed them. How the source made its calls: active means hit-call score of the fitted dose curve at least 0.9, where 1 is the maximum; inconclusive means response in the unintended direction; inactive means score below 0.9.", "data": [{"molecular_target": "Estrogen receptor (Homo sapiens) (UniProt P03372)", "assay": "ERF_US_NR_hESR1: Eurofins (ERF) Nuclear Receptor (NR) Cell Based Protein-Protein Interaction LeadHunter Assay for human Estrogen Receptor alpha (ERa) Agonism", "experimental": "ERF_US_NR_hESR1 is a cell-based, single-readout assay that uses extracted gene-proteins in a cell-line assay. Measurements were taken 5 hours after chemical dosing in a 384-well plate. See ERalpha Human Estrogen NHR Cell Based Agonist Protein-Protein Interaction Assay, DiscoverX.ERF_US_NR_hESR1 is an assay component calculated from the ERF_US_NR_hESR1 assay. It is designed to […].Data from the assay component ERF_US_NR_hESR1 was analyzed at the assay endpoint, ERF_US_NR_hESR1, in the positive analysis fitting direction relative to DMSO as the negative control and baseline of activity. Using a type of binding reporter, gain-of-signal activity can be used to understand changes in binding as they relate to gene ESR1. To generalize the intended target to other relatable targets, this assay endpoint is annotated to the nuclear receptor intended target family, where the subfamily is steroid.\nCells were seeded in a total volume of 20 uL into white walled, 384-well microplates and incubated at 37C overnight prior to testing. Briefly, intermediate dilution of sample stocks was performed to generate 5X sample in assay buffer. 5 uL of 5X sample was added to cells and incubated at37C for 300 minutes. Final assay vehicle concentration was 1%. The results are expressed as a percent efficacy of the control ligand.", "values": [{"smiles": "C=CC(=O)OCC(F)(F)C(F)(F)C(F)(F)C(F)(F)C(F)(F)C(F)(F)C(F)(F)C(F)F", "outcome": "inactive"}, {"smiles": "OCCCC(F)(F)C(F)(F)C(F)(F)C(F)(F)C(F)(F)C(F)(F)C(F)(F)F", "AC50": "inconclusive: 0.00152 µM"}, {"smiles": "FC(F)(I)C(F)(F)C(F)(F)C(F)(F)C(F)(F)C(F)(F)I", "AC50": "active: 12.1 µM"}, {"smiles": "O=C(CC(=O)C(F)(F)C(F)(F)C(F)(F)F)c1cccs1", "AC50": "inconclusive: 9.92 µM"}, {"smiles": "OCCC(F)(F)C(F)(F)C(F)(F)C(F)(F)C(F)(F)C(F)(F)F", "outcome": "inactive"}, {"smiles": "O=C(O)C(F)(F)C(F)(F)C(F)(F)C(F)(F)C(F)(F)C(F)(F)C(F)(F)C(F)(F)Cl", "AC50": "inconclusive: 50 µM"}, {"smiles": "OCCC(F)(F)C(F)(F)C(F)(F)C(F)(F)C(F)(F)C(F)(F)C(F)(F)C(F)(F)F", "outcome": "inactive"}, {"smiles": "O=P(O)(O)OCCC(F)(F)C(F)(F)C(F)(F)C(F)(F)C(F)(F)C(F)(F)F", "outcome": "inactive"}]}]}
